Assay results published in patent US20160137728A1.
No constants are given. Whether binding was seen depends on the method and setting. Some binding calls cover weakened binding; strength is not graded here.

By UniProt entry, the sequences of proteins in these tests, tags left out. Where a name states a change or a piece, a line headed by the entry shows the natural chain unless it says otherwise.
UniProt P05019: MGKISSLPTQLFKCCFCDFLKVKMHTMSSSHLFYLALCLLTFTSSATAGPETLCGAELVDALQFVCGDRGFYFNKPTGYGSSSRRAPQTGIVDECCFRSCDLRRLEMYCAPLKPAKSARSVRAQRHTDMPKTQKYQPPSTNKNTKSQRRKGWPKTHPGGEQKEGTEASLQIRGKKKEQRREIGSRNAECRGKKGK

Experiments:
[1] = target: human insulin-like growth factor-1 (mature, recombinant native IGF-1, Peprotech Cat.#100-11) (human) (UniProt P05019); assay: ELISA, clone culture supernatant
[2] = target: SEQ ID NO 46 (human); assay: CelluSpots peptide array, chemiluminescence
[3] = target: SEQ ID NO 44 (human); assay: CelluSpots peptide array, chemiluminescence
[4] = target: SEQ ID NO 48 (human); assay: CelluSpots peptide array, chemiluminescence
[5] = target: SEQ ID NO 47 (human); assay: CelluSpots peptide array, chemiluminescence
[6] = target: SEQ ID NO 49 (human); assay: CelluSpots peptide array, chemiluminescence
[7] = target: SEQ ID NO 45 (human); assay: CelluSpots peptide array, chemiluminescence
[8] = target: SEQ ID NO 43 (human); assay: CelluSpots peptide array, chemiluminescence
[9] = target: SEQ ID NO 50 (human); assay: CelluSpots peptide array, chemiluminescence

Measured: binding

B1: MAb<h-IGF-1>M-11.09.15 (antibody, V domains shown)
VH: QVQLQQSGAELVRPGSSVKISCKASGYAFSNLWMNWVKQRPGQGLEWIGQIYPGDGDTNYYGDFKGKATLTADSSSSTAYMQLSRLTSEDSAVYFCARIGYYGMDYWGQGTSVTVSS
VL: DVVLTQTPLSLPVNIGDEASISCKSTKSLLSSDGLTYLDWYLQKPGQSPQVLIYLVSNRFSGVPDRFSGSGSGTDFTLKISRVEAEDLGVYYCFQSNYLPTFGAGTKLELK
binds: all assays above
